Experiment [1] deals with ATRX (human (endogenous in HeLa)) (UniProt P46100). Description: affinity purification with mass spectrometry; 5 mg pre-cleared HeLa nuclear extract, overnight at 4 °C with 40 μg ATRX antibody cross-linked to Dynabeads Protein G; washes with 20 mM HEPES pH 7.9, 150 mM KCl, 0.01% NP-40; compared with rabbit IgG and with ATRX KO HeLa cells.
For experiment [2], the target named is ATRX (human (endogenous in HeLa)), P46100. Described as above. The settings on record: remark: other sources report otherwise.

Sequences of proteins named here, by UniProt entry; tags and fusion partners are left off.
UniProt P46100: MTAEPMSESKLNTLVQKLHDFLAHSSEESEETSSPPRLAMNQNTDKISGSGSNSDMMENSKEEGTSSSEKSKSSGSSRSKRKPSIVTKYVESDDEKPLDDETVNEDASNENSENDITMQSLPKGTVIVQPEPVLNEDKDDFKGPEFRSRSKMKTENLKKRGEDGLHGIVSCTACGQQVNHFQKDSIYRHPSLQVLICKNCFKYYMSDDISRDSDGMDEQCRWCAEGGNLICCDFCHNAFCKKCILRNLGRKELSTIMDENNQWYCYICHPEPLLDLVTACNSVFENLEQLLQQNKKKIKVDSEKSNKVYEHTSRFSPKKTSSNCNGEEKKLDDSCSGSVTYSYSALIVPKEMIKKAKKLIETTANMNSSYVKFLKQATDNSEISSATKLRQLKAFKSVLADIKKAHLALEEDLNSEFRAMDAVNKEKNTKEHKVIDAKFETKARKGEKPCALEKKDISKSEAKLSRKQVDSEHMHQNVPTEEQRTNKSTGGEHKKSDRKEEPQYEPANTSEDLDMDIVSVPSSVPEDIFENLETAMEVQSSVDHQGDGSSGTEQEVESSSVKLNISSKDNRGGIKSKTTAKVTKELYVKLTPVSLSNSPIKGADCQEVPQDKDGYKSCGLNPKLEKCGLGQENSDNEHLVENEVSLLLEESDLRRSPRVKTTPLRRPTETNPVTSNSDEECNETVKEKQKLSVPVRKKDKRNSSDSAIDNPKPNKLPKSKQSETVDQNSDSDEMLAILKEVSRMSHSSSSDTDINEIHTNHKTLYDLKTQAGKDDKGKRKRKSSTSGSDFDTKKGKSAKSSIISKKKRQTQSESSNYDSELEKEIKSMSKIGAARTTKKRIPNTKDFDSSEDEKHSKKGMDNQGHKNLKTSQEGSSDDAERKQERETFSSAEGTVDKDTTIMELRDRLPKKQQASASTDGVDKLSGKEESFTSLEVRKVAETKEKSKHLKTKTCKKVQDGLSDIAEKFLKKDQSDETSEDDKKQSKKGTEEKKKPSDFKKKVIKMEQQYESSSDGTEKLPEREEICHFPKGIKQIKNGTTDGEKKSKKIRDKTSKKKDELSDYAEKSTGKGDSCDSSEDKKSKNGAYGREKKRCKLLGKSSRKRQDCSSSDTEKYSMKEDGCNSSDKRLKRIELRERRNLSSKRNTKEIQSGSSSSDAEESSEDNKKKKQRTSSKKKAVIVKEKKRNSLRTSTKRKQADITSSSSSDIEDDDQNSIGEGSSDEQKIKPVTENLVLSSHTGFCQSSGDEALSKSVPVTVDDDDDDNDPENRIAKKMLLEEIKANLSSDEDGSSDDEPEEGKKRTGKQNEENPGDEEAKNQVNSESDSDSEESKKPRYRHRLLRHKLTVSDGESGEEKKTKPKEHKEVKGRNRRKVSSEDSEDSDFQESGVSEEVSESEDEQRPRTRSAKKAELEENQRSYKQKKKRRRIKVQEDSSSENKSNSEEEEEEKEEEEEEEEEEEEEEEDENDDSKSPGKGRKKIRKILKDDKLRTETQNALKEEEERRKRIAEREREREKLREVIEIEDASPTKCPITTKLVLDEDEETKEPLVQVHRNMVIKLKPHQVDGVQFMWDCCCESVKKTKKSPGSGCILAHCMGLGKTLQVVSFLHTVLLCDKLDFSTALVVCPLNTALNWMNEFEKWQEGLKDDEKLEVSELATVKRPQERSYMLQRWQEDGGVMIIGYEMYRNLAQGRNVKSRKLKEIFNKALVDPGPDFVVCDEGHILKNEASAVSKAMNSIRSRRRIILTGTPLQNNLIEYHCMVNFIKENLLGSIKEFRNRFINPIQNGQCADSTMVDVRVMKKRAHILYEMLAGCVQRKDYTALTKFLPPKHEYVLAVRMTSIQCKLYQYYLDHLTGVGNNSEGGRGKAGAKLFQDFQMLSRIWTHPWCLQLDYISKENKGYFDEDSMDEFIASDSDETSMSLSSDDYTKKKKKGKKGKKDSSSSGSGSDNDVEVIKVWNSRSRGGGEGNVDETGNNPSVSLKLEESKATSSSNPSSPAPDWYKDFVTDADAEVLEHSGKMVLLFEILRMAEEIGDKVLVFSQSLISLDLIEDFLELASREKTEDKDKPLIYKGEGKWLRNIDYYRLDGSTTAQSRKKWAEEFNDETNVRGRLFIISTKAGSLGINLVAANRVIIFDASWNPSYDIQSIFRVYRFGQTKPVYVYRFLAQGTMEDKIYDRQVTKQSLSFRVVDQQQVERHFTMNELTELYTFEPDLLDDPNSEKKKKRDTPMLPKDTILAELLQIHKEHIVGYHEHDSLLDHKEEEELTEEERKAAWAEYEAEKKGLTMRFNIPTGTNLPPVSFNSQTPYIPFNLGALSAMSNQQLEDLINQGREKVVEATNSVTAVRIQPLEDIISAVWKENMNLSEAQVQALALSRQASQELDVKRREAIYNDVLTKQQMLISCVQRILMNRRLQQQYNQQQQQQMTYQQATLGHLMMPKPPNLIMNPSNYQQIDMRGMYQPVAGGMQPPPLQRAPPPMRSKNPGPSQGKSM
UniProt Q13206: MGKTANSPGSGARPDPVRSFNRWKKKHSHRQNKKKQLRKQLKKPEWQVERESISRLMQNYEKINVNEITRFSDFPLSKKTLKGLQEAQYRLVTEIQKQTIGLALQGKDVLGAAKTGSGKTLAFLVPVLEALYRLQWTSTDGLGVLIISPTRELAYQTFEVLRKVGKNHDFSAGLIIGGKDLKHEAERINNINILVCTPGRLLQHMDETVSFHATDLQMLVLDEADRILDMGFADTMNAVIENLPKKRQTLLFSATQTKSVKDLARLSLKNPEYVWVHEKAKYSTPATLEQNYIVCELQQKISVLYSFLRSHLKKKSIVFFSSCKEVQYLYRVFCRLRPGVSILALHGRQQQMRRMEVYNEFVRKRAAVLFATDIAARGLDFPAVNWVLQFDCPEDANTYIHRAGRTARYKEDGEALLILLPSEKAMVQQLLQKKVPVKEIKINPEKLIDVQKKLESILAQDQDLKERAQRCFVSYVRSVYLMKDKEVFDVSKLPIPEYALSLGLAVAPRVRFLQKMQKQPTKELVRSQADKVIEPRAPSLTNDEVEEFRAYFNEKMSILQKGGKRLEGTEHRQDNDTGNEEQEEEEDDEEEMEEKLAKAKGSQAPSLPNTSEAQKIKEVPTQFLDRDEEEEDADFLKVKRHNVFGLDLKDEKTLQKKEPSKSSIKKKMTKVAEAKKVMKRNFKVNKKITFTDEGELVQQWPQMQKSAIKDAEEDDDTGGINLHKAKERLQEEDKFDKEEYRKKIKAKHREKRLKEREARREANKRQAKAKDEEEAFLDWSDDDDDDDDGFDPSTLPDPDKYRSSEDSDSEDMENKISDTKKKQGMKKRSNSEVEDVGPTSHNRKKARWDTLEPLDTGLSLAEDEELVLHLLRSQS
UniProt P49736: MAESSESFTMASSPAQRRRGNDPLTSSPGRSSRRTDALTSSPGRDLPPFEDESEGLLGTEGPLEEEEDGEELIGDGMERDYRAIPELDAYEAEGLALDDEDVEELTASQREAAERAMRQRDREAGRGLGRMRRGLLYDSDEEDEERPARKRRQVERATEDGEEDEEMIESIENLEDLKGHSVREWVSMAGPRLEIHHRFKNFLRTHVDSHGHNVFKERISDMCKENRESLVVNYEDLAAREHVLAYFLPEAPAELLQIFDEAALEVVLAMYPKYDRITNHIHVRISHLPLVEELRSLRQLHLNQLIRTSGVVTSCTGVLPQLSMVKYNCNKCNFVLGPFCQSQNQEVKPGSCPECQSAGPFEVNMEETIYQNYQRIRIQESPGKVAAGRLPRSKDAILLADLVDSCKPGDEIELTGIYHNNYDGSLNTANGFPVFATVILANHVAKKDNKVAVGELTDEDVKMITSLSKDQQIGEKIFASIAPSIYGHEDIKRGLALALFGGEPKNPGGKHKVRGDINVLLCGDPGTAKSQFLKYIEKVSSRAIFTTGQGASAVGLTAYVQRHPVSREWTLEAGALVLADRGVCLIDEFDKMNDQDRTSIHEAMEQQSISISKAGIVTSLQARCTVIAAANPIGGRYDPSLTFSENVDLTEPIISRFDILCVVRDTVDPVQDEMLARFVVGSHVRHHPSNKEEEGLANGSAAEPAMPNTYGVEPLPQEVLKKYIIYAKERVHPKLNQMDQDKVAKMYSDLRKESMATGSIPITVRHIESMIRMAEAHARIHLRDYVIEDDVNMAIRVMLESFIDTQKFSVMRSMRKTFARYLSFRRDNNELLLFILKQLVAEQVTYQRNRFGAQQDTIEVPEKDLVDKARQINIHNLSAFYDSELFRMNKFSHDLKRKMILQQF

Drawing on PMC8222256, this text covers binding for 5 molecules.

Results are given in words; binding and its absence hold for the method and conditions named. In cells and extracts the contact can be indirect. Here binding means that the protein was enriched with, or labelled near, the bait; the list need not be complete.

Take DDX10 (from UniProt Q13206 1-875): the binding entry in experiment [1] was “binds”.

Take MCM2 (from UniProt P49736 1-904): the binding entry in experiment [1] is “binds”. The same measure, in the same setting: the result for SPEN (from UniProt Q96T58 1-3664) reads “binds”.

B1: Mre11, P49959 1-708 (protein)
chain: MSTADALDDENTFKILVATDIHLGFMEKDAVRGNDTFVTLDEILRLAQENEVDFILLGGDLFHENKPSRKTLHTCLELLRKYCMGDRPVQFEILSDQSVNFGFSKFPWVNYQDGNLNISIPVFSIHGNHDDPTGADALCALDILSCAGFVNHFGRSMSVEKIDISPVLLQKGSTKIALYGLGSIPDERLYRMFVNKKVTMLRPKEDENSWFNLFVIHQNRSKHGSTNFIPEQFLDDFIDLVIWGHEHECKIAPTKNEQQLFYISQPGSSVVTSLSPGEAVKKHVGLLRIKGRKMNMHKIPLHTVRQFFMEDIVLANHPDIFNPDNPKVTQAIQSFCLEKIEEMLENAERERLGNSHQPEKPLVRLRVDYSGGFEPFSVLRFSQKFVDRVANPKDIIHFFRHREQKEKTGEEINFGKLITKPSEGTTLRVEDLVKQYFQTAEKNVQLSLLTERGMGEAVQEFVDKEEKDAIEELVKYQLEKTQRFLKERHIDALEDKIDEEVRRFRETRQKNTNEEDDEVREAMTRARALRSQSEESASAFSADDLMSIDLAEQMANDSDDSISAATNKGRGRGRGRRGGRGQNSASRGGSQRGRADTGLETSTRSRNSKTAVSASRNMSIIDAFKSTRQQPSRNVTTKNYSEVIEVDESDVEEDIFPTTSKTDQRWSSTSSSKIMSQSQVSKGVDFESSEDDDDDPFMNTSSLRRNRR
For B1, the binding entry in experiment [2] is reported as “binds”.

B2: MCM6 (protein, UniProt Q14566 1-821)
chain: MDLAAAAEPGAGSQHLEVRDEVAEKCQKLFLDFLEEFQSSDGEIKYLQLAEELIRPERNTLVVSFVDLEQFNQQLSTTIQEEFYRVYPYLCRALKTFVKDRKEIPLAKDFYVAFQDLPTRHKIRELTSSRIGLLTRISGQVVRTHPVHPELVSGTFLCLDCQTVIRDVEQQFKYTQPNICRNPVCANRRRFLLDTNKSRFVDFQKVRIQETQAELPRGSIPRSLEVILRAEAVESAQAGDKCDFTGTLIVVPDVSKLSTPGARAETNSRVSGVDGYETEGIRGLRALGVRDLSYRLVFLACCVAPTNPRFGGKELRDEEQTAESIKNQMTVKEWEKVFEMSQDKNLYHNLCTSLFPTIHGNDEVKRGVLLMLFGGVPKTTGEGTSLRGDINVCIVGDPSTAKSQFLKHVEEFSPRAVYTSGKASSAAGLTAAVVRDEESHEFVIEAGALMLADNGVCCIDEFDKMDVRDQVAIHEAMEQQTISITKAGVKATLNARTSILAAANPISGHYDRSKSLKQNINLSAPIMSRFDLFFILVDECNEVTDYAIARRIVDLHSRIEESIDRVYSLDDIRRYLLFARQFKPKISKESEDFIVEQYKHLRQRDGSGVTKSSWRITVRQLESMIRLSEAMARMHCCDEVQPKHVKEAFRLLNKSIIRVETPDVNLDQEEEIQMEVDEGAGGINGHADSPAPVNGINGYNEDINQESAPKASLRLGFSEYCRISNLIVLHLRKVEEEEDESALKRSELVNWYLKEIESEIDSEEELINKKRIIEKVIHRLTHYDHVLIELTQAGLKGSTEGSESYEEDPYLVVNPNYLLED
Regarding B2, the binding result in experiment [1] was “binds”.
